Experimental data: PubChem BioAssay AID1259308 (NCATS, 2017)
The whole screen tested about 59,000 reagents; this is a part drawn at random. About 1,510 of them (2.6%) were called active. 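Calls use total luciferase alone and ignore viability, so some active siRNAs may act by altering cell number.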 Unmarked entries are inactive. Reagents against one gene are numbered here. Not all columns of the deposit are shown.

- Test: 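Knock-downs that increase output of a recombinant reporter protein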 (primary screen)
- Cells: human HEK293 embryonic kidney cells stably expressing firefly luciferase (HEK-CMV-Luc2-Hygro)
- Knock-down reagent: single siRNA against human genes, 0.8 pmol siRNA per well
- Duration: 72 h
- Measured: 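Luciferase light (ONE-Glo) measured on one replicate plate set and viability (CellTiter-Glo) on the other, scaled to a negative control siRNA, with robust z-scores and luciferase per cell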
- Direction: total luciferase, z-score and total luciferase, % of control: higher = more reporter protein produced
- Call rule: 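Active when the median/MAD z-score for overall luciferase is greater than 3; a gene was taken forward for validation with new siRNAs if at least two of its three siRNAs passed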
- Meaning of the calls: active = raised luciferase; inactive = no rise

What is on record for INSL4 (GeneID 3641) #1?
total luciferase, z-score: -0.795; total luciferase, % of control: 66.1

Which result is listed for INSL4 (GeneID 3641) #2?
total luciferase, z-score: -0.0578; total luciferase, % of control: 80.7

How did the screen score INSL4 (GeneID 3641) #3?
total luciferase, z-score: -2.87; total luciferase, % of control: 24.8

What did the screen give for KRTAP4-4 (GeneID 84616) #1?
total luciferase, z-score: -1.17; total luciferase, % of control: 58.5

For KRTAP4-4 (GeneID 84616) #2, what was measured?
total luciferase, z-score: -2.42; total luciferase, % of control: 33.8

What is on record for KRTAP4-4 (GeneID 84616) #3?
total luciferase, z-score: -0.439; total luciferase, % of control: 73.2

With C19orf81 (GeneID 342918) #1, what was measured?
total luciferase, z-score: 1.36; total luciferase, % of control: 109

For C19orf81 (GeneID 342918) #2, how do the results read?
total luciferase, z-score: 1.43; total luciferase, % of control: 110

How did the screen score C19orf81 (GeneID 342918) #3?
total luciferase, z-score: -0.429; total luciferase, % of control: 73.4

With MYO1F (GeneID 4542) #1, what was measured?
total luciferase, z-score: -0.113; total luciferase, % of control: 79.6

With MYO1F (GeneID 4542) #2, what does the deposit list?
total luciferase, z-score: 1.22; total luciferase, % of control: 106

What did the screen give for MYO1F (GeneID 4542) #3?
total luciferase, z-score: -0.735; total luciferase, % of control: 67.3

With ASB7 (GeneID 140460) #1, how do the results read?
total luciferase, z-score: 0.0806; total luciferase, % of control: 83.5

With ASB7 (GeneID 140460) #2, how do the results read?
total luciferase, z-score: 0.14; total luciferase, % of control: 84.7

For ASB7 (GeneID 140460) #3, what does the deposit list?
total luciferase, z-score: 0.686; total luciferase, % of control: 95.5

With SEMG2 (GeneID 6407) #1, how do the results read?
total luciferase, z-score: 1.74; total luciferase, % of control: 117

With SEMG2 (GeneID 6407) #2, what was measured?
total luciferase, z-score: 0.206; total luciferase, % of control: 86

What did the screen give for SEMG2 (GeneID 6407) #3?
total luciferase, z-score: 0.868; total luciferase, % of control: 99.1

How did the screen score GPR146 (GeneID 115330) #1?
total luciferase, z-score: 0.0193; total luciferase, % of control: 82.3

With GPR146 (GeneID 115330) #2, what was measured?
total luciferase, z-score: -1.61; total luciferase, % of control: 49.8

How did the screen score GPR146 (GeneID 115330) #3?
total luciferase, z-score: 0.727; total luciferase, % of control: 96.3

Single entries from the list:
Value of SEMG2 (GeneID 6407) #3 in “total luciferase, % of control”: 99.1
Result for INSL4 (GeneID 3641) #3 under “total luciferase, z-score”: -2.87
Result of INSL4 (GeneID 3641) #2 in “total luciferase, z-score”: -0.0578
